PMC11236154
Substitutions are numbered along the chain they refer to. These are yes or no findings as the source states them, for the method shown. In cells and extracts the contact can be indirect. A result given as binding can be weak or reduced; the word gives no strength.

Assays:
Assay in all cases: co-IP; both proteins co-expressed in HEK293T cells; lysate in 1% Triton X-100, 50 mM Tris-HCl pH 7.5, 150 mM NaCl; Dynabeads magnetic beads; Western blotting; which partner was precipitated is not told
[1] = biological target: T1, constitutively active (CA; GTP-bound) form of RAB2A, Q65L (UniProt P53994)
T1 sequence: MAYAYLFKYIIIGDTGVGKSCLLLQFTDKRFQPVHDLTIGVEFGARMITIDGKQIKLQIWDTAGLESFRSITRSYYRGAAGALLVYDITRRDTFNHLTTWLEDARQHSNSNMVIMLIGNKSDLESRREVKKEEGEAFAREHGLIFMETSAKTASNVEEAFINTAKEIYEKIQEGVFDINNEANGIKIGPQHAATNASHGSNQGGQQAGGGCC

[2] = biological target: T2, constitutively active (CA; GTP-bound) form of RAB2B, Q65L (UniProt P59279)
T2 sequence: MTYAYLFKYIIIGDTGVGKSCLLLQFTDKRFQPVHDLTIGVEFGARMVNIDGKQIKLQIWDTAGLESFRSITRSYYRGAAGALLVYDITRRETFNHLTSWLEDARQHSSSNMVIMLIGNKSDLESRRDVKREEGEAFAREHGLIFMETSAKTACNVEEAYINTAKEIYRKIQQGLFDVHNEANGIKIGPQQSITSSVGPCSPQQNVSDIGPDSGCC

[3] = biological target: T3, constitutively negative (CN; GDP-bound) form of RAB2A, S20N (UniProt P53994)
T3 sequence: T1 sequence with S20N, L65Q

[4] = biological target: T4, constitutively negative (CN; GDP-bound) form of RAB2B, S20N (UniProt P59279)
T4 sequence: T2 sequence with S20N, L65Q

- binding [1]: binds
- binding [2]: binds
- binding [3]: binds weakly
- binding [4]: binds
Substance: FLAG-tagged GARIN5B (mouse)
